Experimental data reported in article PMC4642342.
Results are given in words; binding and its absence hold for the method and conditions named. In cells and extracts the contact can be indirect. Binding can be weak; no strength is given. Values belong to the substance of their own block, whether it stands above or below them.

Amino acid sequences for entries named in this document (tags omitted). A change or cut given only in a name is not applied to a line headed by its entry.
UniProt Q16665: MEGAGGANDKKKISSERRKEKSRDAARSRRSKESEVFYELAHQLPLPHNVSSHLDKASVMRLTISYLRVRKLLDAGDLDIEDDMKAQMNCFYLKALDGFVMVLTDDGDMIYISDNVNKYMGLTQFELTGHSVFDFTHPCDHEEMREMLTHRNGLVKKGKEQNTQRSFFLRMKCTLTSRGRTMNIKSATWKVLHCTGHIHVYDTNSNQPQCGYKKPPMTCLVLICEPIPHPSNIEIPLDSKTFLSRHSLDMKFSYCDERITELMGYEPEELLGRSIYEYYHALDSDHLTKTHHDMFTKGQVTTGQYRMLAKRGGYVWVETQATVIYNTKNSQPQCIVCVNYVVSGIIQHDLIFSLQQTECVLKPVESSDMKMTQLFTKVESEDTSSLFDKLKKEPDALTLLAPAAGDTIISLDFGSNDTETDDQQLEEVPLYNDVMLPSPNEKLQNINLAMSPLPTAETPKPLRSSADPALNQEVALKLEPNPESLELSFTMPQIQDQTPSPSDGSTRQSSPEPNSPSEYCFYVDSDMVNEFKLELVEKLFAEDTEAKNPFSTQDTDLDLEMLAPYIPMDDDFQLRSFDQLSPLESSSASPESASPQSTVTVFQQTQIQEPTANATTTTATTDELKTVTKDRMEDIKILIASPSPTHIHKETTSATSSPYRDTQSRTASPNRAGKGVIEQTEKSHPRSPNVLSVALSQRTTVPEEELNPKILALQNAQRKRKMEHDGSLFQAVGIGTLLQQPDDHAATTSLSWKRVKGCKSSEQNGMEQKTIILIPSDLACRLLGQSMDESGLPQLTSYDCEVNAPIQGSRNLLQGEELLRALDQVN
UniProt Q96BA8: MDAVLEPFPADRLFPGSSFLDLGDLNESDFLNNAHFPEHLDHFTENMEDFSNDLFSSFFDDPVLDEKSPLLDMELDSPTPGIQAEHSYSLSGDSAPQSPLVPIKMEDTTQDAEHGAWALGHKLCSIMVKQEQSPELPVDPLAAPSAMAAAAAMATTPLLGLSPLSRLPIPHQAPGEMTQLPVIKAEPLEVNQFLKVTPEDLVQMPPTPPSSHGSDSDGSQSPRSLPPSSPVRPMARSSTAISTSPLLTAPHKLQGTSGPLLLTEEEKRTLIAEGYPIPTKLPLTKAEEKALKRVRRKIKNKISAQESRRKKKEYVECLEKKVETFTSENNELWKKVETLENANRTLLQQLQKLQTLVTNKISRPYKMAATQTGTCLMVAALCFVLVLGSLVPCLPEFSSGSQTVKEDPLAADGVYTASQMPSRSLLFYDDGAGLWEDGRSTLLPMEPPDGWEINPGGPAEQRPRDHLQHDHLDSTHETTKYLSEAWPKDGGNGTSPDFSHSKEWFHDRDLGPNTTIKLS

How the values were obtained:
[1] = molecular target: hypoxia-inducible factor-1α (HIF-1α), endogenous in hypoxia-exposed HEK293T cells (human (endogenous in HEK293T)) (UniProt Q16665); experiment: co-IP; HEK293T cells transfected with Flag-tagged OASIS-N and exposed to hypoxia; lysates precipitated with anti-Flag or anti-HIF-1α antibodies and rProtein G agarose, 4 °C overnight, washed in lysis buffer with 150 mM NaCl; blots with anti-HIF-1α and anti-OASIS
[2] = molecular target: Flag-tagged OASIS N-terminus (Flag-OASIS-N) (human) (UniProt Q96BA8); experiment: co-IP; HEK293T cells transfected with HIF-1α P-A and FLAG-OASIS-N or FLAG-OASIS-N ΔbZIP; lysates precipitated with anti-Flag antibodies; blots with anti-HIF-1α and anti-OASIS
[3] = molecular target: Flag-tagged OASIS N-terminus (Flag-OASIS-N) (human) (UniProt Q96BA8); experiment: co-IP; HEK293T cells transfected with Flag-tagged OASIS-N and exposed to hypoxia; lysates precipitated with anti-Flag or anti-HIF-1α antibodies and rProtein G agarose, 4 °C overnight, washed in lysis buffer with 150 mM NaCl; blots with anti-HIF-1α and anti-OASIS

binding [1]: binds
Substance: Flag-tagged OASIS N-terminus (Flag-OASIS-N) (from UniProt Q96BA8) (domain or fragment)

binding [2]: binds
Substance: HIF-1α P402A/P564A (HIF-1α P-A; constitutively activated stabilized form) (from UniProt Q16665 1-826)

binding [3]: binds
Substance: hypoxia-inducible factor-1α (HIF-1α), endogenous in hypoxia-exposed HEK293T cells (from UniProt Q16665 1-826)
